Our source for the binding values is paper PMC4260917, “Defective FANCI Binding by a Fanconi Anemia-Related FANCD2 Mutant” (PLoS ONE, 2014).

Chains of the proteins cited; added tags and fusions are not shown.
UniProt Q68Y81: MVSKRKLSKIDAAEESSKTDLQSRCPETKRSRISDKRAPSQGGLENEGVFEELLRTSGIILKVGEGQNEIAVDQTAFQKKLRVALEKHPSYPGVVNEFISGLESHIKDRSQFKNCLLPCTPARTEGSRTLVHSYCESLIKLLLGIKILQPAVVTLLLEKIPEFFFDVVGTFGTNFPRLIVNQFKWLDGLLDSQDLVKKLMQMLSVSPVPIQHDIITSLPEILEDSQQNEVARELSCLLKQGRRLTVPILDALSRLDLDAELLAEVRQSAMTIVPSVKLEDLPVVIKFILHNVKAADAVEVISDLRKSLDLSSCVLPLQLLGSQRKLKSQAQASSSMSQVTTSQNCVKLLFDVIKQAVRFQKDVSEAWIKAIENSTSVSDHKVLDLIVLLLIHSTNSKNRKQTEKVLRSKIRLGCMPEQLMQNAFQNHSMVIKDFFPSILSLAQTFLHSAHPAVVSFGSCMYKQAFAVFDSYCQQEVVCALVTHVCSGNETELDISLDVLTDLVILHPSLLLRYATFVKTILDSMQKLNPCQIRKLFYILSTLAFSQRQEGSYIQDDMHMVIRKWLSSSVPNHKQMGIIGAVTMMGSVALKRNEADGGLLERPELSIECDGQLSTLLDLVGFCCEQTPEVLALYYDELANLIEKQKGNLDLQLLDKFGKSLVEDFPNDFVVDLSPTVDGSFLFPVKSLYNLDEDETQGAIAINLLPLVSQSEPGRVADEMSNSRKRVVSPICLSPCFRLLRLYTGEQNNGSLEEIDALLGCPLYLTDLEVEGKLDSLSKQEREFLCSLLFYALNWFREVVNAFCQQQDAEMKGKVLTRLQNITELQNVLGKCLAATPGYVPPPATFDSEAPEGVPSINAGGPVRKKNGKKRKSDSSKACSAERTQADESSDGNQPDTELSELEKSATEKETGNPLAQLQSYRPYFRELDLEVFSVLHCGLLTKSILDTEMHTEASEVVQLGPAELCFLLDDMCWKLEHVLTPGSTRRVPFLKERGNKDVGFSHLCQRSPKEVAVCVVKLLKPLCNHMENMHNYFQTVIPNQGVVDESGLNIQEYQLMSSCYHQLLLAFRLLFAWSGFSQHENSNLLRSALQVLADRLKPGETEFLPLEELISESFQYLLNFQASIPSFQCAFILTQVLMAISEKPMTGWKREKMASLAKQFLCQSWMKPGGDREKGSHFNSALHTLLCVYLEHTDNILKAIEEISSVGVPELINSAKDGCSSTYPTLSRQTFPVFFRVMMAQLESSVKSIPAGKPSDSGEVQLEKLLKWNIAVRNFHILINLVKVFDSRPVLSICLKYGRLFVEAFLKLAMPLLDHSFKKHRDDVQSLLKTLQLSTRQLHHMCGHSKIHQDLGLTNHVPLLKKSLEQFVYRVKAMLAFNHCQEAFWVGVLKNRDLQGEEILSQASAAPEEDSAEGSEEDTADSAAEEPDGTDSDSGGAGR

No constants are given. Whether binding was seen depends on the method and setting. In cells and extracts the contact can be indirect. Some results given as binding are weak or reduced against the parent protein; the word gives no strength.

The target of the assay is GFP-fused wild type chicken FANCD2 expressed in FANCD2-/- DT40 cells (chicken) (UniProt Q68Y81). Nature of the assay: co-IP; anti-GFP beads on lysates of DT40 cells producing GFP-cFANCD2; lysis buffer 20 mM Tris-HCl (pH 7.5), 150 mM NaCl, 0.5% NP-40; lysates treated with Benzonase; western blot with anti-chicken FANCD2 and FANCI antibodies; called a cell-based pull-down assay.

B1: chicken FANCI, wild type, purified recombinant (natural protein, UniProt B0I564 1-1338, looked up)
chain: MAQRILQLAAEGSPERLQEALQGLTEGELGDMVTRQALRGRETAALLKGIFKGSPCSQQSGVLRRLQVYKHCVSLVESGDLHVGKVSEIIGLLMLEARQLPGHALAELATLFVEVIKRGSLSNGKSLELFSTVLTALSNSKESLAYGKGELNGEEFKKQLINTLCSSKWDPQCVIHLANMFRDIPLSGEELQFVVEKVLRMFSKLDLQEIPPLVYQLLLLSAKGSKKTVLEGIISFFNQLDKRQKEEQRVPQSADLEVATVPLDQLRHVEGTVILHIVSAINLDQDIGEELIKHLKTEQQKDPGKALCPFSVSLLLSTAVKHRLQEQIFDFLKTSITRSCKDLQILQASKFLQDLCPQQYDVTAVILEVVKNSAFGWDHVTQGLVDLGFSLMESYEPKKSFGGKAAETNLGLSKMPAQQACKLGASILLETFKVHEPIRSDILEQVLNRVLTKAASPVSHFIDLLSNIVVSAPLVLQNSSSRVTETFDNLSFLPIDTVQGLLRAVQPLLKVSMSVRDSLILVLQKAIFSRQLDARKAAVAGFLLLLRNFKILGSLTSSQCSQAIGATQVQADVHACYNSAANEAFCLEILGSLRRCLSQQADVRLMLYEGFYDVLRRNSQLASSIMETLLSQIKQYYLPQQDLLPPLKLEGCIMAQGDQIFLQEPLAHLLCCIQHCLAWYKSTVHLCKGAEDEEEEEDVGFEQNFEEMLESVTRRMIKSELEDFELDKSADFSPSSGVGVKNNIYAIQVMGICEVLIEYNFKIGNFSKNKFEDVLGLFTCYNKLSEILKEKAGKNKSTLGNRIARSFLSMGFVSTLLTALFRDNAQSHEESLAVLRSSTEFMRYAVSVALQKVQQLEEMGQTDGPDGQNPEKMFQNLCKITRVLLWRYTSIPTAVEESGKKKGKSISLLCLEGLLRIFNTMQQLYAARIPQFLQALDITDGDAEEADINVTEKAAFQIRQFQRSLVNQLSSAEDDFNSKETQLLITILSTLSKLLDPGSQQFLQFLTWTVKICKENALEDLSCCKGLLTLLFSLHVLYKSPVSLLRELAQDIHACLGDIDQDVEIESRSHFAIVNVKTAAPTVCLLVLGQADKVLEEVDWLIKRLTILGSDTSEDSTQASNQTQALEKGVILQLGTLLTVFHELVQTALPAGSCVDSLLRSLSKTYAILTSLIKHYIQACRSTSNTVPGRLEKLVKLSGSHLTPQCYSFITYVQNIHSESLSFAEEKKKKKKEDETAVVSTVMAKVLRDTKPIPNLIFAIEQYEKFLIHLSKKSKVNLMQYMKLSTSRDFRINASMLDSVLQEQNTEDAENEPDNNQSGTAEQPDENQEPQKKRRRKK
notes: FANCI, chicken (Gallus gallus); also called cFANCI; WT cFANCI; source: E. coli BL21(DE3) codon(+)RIL, purified
Turning to B1, the binding entry is on record as “binds”.
